{"source": "paper PMC2223503", "molecules": {"B1": {"name": "cholecystokinin (peptide, UniProt P06307 21-115, looked up)", "Cholecystokinin": "QPVPPADPAGSGLQRAEEAPRRQLRVSQRTDGESRAHLGALLARYIQQARKAPSGRMSIVKNLQNLDPSHRISDRDYMGWMDFGRRSAEEYEYPS", "modifications": "Cholecystokinin", "notes": "gut hormone"}}, "system": "receptors for cholecystokinin (CCK)", "test": "storage phosphor autoradiography, binding of [125I]BH-CCK-8 to human pancreatic tissue sections", "conditions": "12 pancreatic cancers, result in words"}
{"molecule": "B1", "values": [{"measurement": "receptors in pancreatic cancers", "result": "No CCK receptors were identified in pancreatic cancers"}]}
